Laboratory results taken from patent publication US20200289482A1, “CYSTIC FIBROSIS TRANSMEMBRANE CONDUCTANCE REGULATOR MODULATORS FOR TREATING AUTOSOMAL DOMINANT POLYCYSTIC KIDNEY DISEASE” (The Johns Hopkins University, priority 2017, published 2020).
At least one compound was matched to its structure with a doubt left.

Tested on: model ADPKD cell line (PN=pkd−/− knockout)
Test: In vitro cystogenesis (3D Matrigel culture), cyst size
Type: cell-based, mouse
Conditions: vs control cells

Compound: C=C[C@@]1(C)CC(=O)[C@]2(O)[C@@]3(C)[C@@H](O)CCC(C)(C)[C@@H]3[C@H](O)[C@H](OC(C)=O)[C@@]2(C)O1 [forskolin]
- cyst size after treatment with forskolin: larger than those in the control cells
